Here are results for 35 molecules from PubChem BioAssay AID2685 (National Center for Advancing Translational Sciences (NCATS), 2010).

The assay is described as follows: qHTS Assay for Lipid Storage Modulators in Drosophila S3 Cells.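 For cell number change: cells counted by Cell Tracker Red CMTPX staining in the red channel.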 The settings on record: BODIPY lipid droplet fluorescence, 18-24 h; for cell number change: measured here: cell count max response, cells fed with added oleic acid. The gist of the method: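 Drosophila S3 cells got compounds at several concentrations plus oleic acid (400 uM solution). Laser-scanning cytometry with 488 nm excitation read lipid droplets at 500-530 nm and cells at 575-640 nm. Percent activity was relative to 20 uM Triacsin C.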
On the technique in general: In qHTS, concentration-response curves come from the screen itself.

Where [1] appears, read: measured here: cell number channel AC50, cells fed with added oleic acid.
The mark [2] stands for this setting: measured here: lipid fluorescence (Fed channel) AC50, cells fed with added oleic acid.

Some of the results follow. The main result of the screen is listed elsewhere. These columns were measured beside it and carry no call. Compounds called inactive in the main read-out are mostly missing here. The note in brackets gives the kind of curve behind each potency; many fits are weak.

With `O=C(NCCO)c1ccc(-c2nnc(N3CCOCC3)c3ccccc23)cc1`, the cell number change was found to be 12.3%. Besides, the concentration at half-maximal activity (AC50) (as a rule, the concentration at which the activity in the assay is half-maximal) under setting [1] is 0.082 µM [falling, full curve, poor fit]. The AC50 under setting [2] is 6.51 µM [falling, single point].

For `O=C(Nc1ccc(F)cc1)c1cc2c(s1)CCCC2`, the cell number change was determined as 7.13%. Under setting [1], the AC50 is 0.164 µM [falling, full curve, poor fit].

As to `CCC/C=N/NC(=O)c1ccccc1O`, the cell number change was -20.6%. Further, the AC50 under setting [2] is 23.1 µM [falling, single point].

`CCOC(=O)N1CCN(c2nc3ccccc3nc2C(C#N)S(=O)(=O)c2ccc(C)cc2)CC1` (configuration not stated): the AC50 is 0.00461 µM [rising, full curve, poor fit] under setting [1] and 3.66 µM [rising, partial curve, poor fit] under setting [2].

Turning to `Cc1cc(Nc2ccc(C(=O)O)cc2)nc(N)n1`, the cell number change is 25.8%.

Consider `S=c1[nH]nc(-c2ccc(Cl)cc2)n1Cc1ccccc1`, for which the cell number change is -29.8%. Further, the half-maximal activity concentration (AC50) under setting [2] is 20.6 µM [falling, single point].

In the case of `CC(NC(=O)c1ccc(N(C)C)cc1)C1CC2CCC1C2` (configuration not stated), the concentration at half-maximal activity (AC50) under setting [1] is 0.092 µM [rising, full curve, poor fit].

As to `O=C(CNC(=S)N(CCCN1CCOCC1)Cc1cccs1)N1CCCC1`, the cell number change came to 2.82%. For the same molecule, under setting [1], the half-maximal activity concentration (AC50) is 6.51 µM [rising, single point]. Also, the AC50 under setting [2] was 6.51 µM [rising, partial curve].

On to `CSc1ccc(S(=O)(=O)N2CCC(C(=O)NCc3ccccn3)CC2)cc1`, for which the cell number change is 26.1%. Moreover, under setting [2], the AC50 was 18.4 µM [rising, partial curve].

`CC1=NN(C(=S)Nc2ccccc2)C(c2ccccc2)C1` (configuration not stated): the cell number change was -42.7%. Further, the concentration at half-maximal activity (AC50) under setting [1] was 2.91 µM [falling, single point]. For the same molecule, the concentration at half-maximal activity (AC50) under setting [2] was 4.61 µM [rising, single point].

For `CN1C(=O)C(C)(C)c2cc(S(=O)(=O)N3CCN(c4ccccc4F)CC3)ccc21`, the cell number change is -1.44%. Moreover, under setting [2], the concentration at half-maximal activity (AC50) is 11.6 µM [falling, single point].

`CN(Cc1ccc(F)cc1)C(=O)c1cccc(OCc2ccccc2)c1`: the cell number change is -5.26%.

For the molecule `O=C(CSCc1nc2ccccc2[nH]1)N1CCN(c2ccc(F)cc2)CC1`, the cell number change was -29.9%. Also, the half-maximal activity concentration (AC50) under setting [2] is 0.651 µM [rising, single point].

`COc1cccc(/C=N/NC(=O)c2ccc(=O)n(C)c2)c1O`: the cell number change is -2.11%. Besides, the concentration at half-maximal activity (AC50) under setting [2] was 18.4 µM [rising, single point].

For `c1ccc(-n2nnnc2-n2cnc3ccccc32)cc1`, the cell number change was found to be 48%. Further, the AC50 under setting [1] was 9.2 µM [rising, partial curve]. Besides, under setting [2], the AC50 was 6.51 µM [falling, single point].

With `Cc1cc2ccccc2n1CCNC(=O)c1ccc(S(=O)(=O)N2CCCCC2)cc1`, the concentration at half-maximal activity (AC50) under setting [2] was 29.1 µM [falling, single point].

On to `O=C(OCc1ccccc1)C1=NNC2C(=O)N(c3ccccc3)C(=O)C12` (configuration not stated), for which the cell number change came to 6.03%. For the same molecule, under setting [1], the concentration at half-maximal activity (AC50) was 6.51 µM [rising, single point]. Moreover, under setting [2], the half-maximal activity concentration (AC50) is 0.13 µM [rising, full curve, poor fit].

As to `COc1ccc(-c2cc(C(=O)OC3CCOC3=O)c3ccccc3n2)cc1OC` (configuration not stated), the cell number change was 0.363%. Under setting [2], the AC50 is 29.1 µM [rising, single point].

Consider `CC1=NN(C(C#N)c2c(C)nn(Cc3ccccc3)c2C)C(C)(C)C1` (configuration not stated), for which the cell number change was 20.7%. In addition, the AC50 under setting [2] is 16.4 µM [rising, partial curve, poor fit].

Turning to `CN(C)S(=O)(=O)N1CCC(Oc2cccc(C(=O)NC3CCCCC3)c2)CC1`, the cell number change was -34.3%. Also, the AC50 under setting [1] was 9.2 µM [falling, partial curve]. Under setting [2], the AC50 was 16.4 µM [falling, partial curve, poor fit].

For the molecule `Cc1nc(N2CCN(S(=O)(=O)c3ccccc3)CC2)c2cc(-c3ccccc3)sc2n1`, the cell number change was found to be 30.4%. Besides, under setting [1], the half-maximal activity concentration (AC50) was 2.06 µM [rising, full curve]. In addition, under setting [2], the concentration at half-maximal activity (AC50) is 0.0326 µM [rising, full curve].

Turning to `CC(=O)Oc1ccc(-c2ccc(C(=O)OCC(=O)N(C)CC(=O)Nc3ccccc3Cl)cc2)cc1`, under setting [2], the AC50 is 0.146 µM [rising, full curve, poor fit].

`CC(OC(=O)c1nc(Cl)ccc1Cl)C(=O)NC1CCCCC1C` (configuration not stated): the cell number change was -38%. Also, the half-maximal activity concentration (AC50) under setting [1] is 18.4 µM [falling, partial curve].

Regarding `O=C(CN(CC1CCCO1)C(=O)CNS(=O)(=O)c1ccc(F)cc1)NC1CCCC1` (configuration not stated), the cell number change is -1.28%.

With `CC(C)(C)c1ccc(S(=O)(=O)NC(Cc2ccccc2)C(=O)O)cc1` (configuration not stated), the cell number change is -67.7%. Also, under setting [1], the half-maximal activity concentration (AC50) is 5.8 µM [falling, partial curve]. In addition, the AC50 under setting [2] is 0.0164 µM [falling, full curve, poor fit].

`CSc1ccccc1NC(=O)Cn1c(-c2cscn2)nc2ccccc21`: the concentration at half-maximal activity (AC50) reads like this: under setting [1], 0.103 µM [rising, full curve, poor fit]; under setting [2], 0.13 µM [rising, full curve, poor fit].

Consider `O=C(Nc1ccc2c(c1)OCCO2)c1cccc2nc3ccccc3nc12`, for which the cell number change is -86.6%. Under setting [1], the AC50 is 29.1 µM [falling, single point]. Besides, the AC50 under setting [2] was 18.4 µM [falling, partial curve].

`O=C(NC1=NCCS1)c1cccc2ccccc12`: the cell number change was 37.2%. Under setting [1], the half-maximal activity concentration (AC50) is 1.03 µM [rising, full curve, poor fit].

On to `O=C(CCC(=O)OCc1ccc([N+](=O)[O-])cc1)Nc1ccccc1Cl`, for which the cell number change was -30.9%. In addition, the half-maximal activity concentration (AC50) under setting [1] was 29.1 µM [falling, single point]. The concentration at half-maximal activity (AC50) under setting [2] was 23.1 µM [falling, single point].

With `CCOC(=O)c1ccc(NC(=O)C2C3C=CC(C3)C2C(=O)O)cc1` (configuration not stated), the cell number change was -1.82%. Moreover, the AC50 under setting [2] is 0.058 µM [falling, full curve, poor fit].

For the molecule `CCOc1ccc(Nc2ncnc3c2cnn3-c2ccccc2)cc1`, the half-maximal activity concentration (AC50) under setting [1] is 2.06 µM [rising, partial curve, poor fit].

For the molecule `Cc1ccc(C)c(NC(=O)CN(C)C(=O)c2ccccc2OCc2ccc(Cl)cc2)c1`, the cell number change came to 48.5%. In addition, under setting [1], the half-maximal activity concentration (AC50) is 18.4 µM [rising, partial curve].

In the case of `O=C(c1ccc[nH]c1=S)N1CCN(S(=O)(=O)c2ccc(Br)cc2Cl)CC1`, the cell number change was found to be 6.09%. Besides, the half-maximal activity concentration (AC50) under setting [2] was 0.103 µM [falling, full curve, poor fit].

With `CC1=C(C(=O)N(C)C)C(c2ccccc2OC(F)F)NC(=O)N1` (configuration not stated), the cell number change was determined as 4.11%.

With `O=C(c1ccco1)N1CCN(C(=O)C2CCCN(S(=O)(=O)Cc3ccccc3)C2)CC1` (configuration not stated), the cell number change worked out at 18.4%. Moreover, the AC50 under setting [2] was 4.11 µM [rising, partial curve].
